Test results reported in patent publication US20220135665A1.
These are yes or no findings as the source states them, for the method shown. Binding can be weak; no strength is given.

Key:
[1] = target: recombinant human VEGF165 protein (human); experiment: phage ELISA on coated recombinant human VEGF165
[2] = target: recombinant human VEGF165 protein (human); experiment: competition ELISA, VEGF165 coated
[3] = target: recombinant human VEGF165 protein (human); experiment: ELISA
[4] = target: recombinant human VEGF165 protein (human); experiment: ELISA, VEGF165 coated at 0.1, 1 and 10 ug/mL, Fab 2 ug/mL

B1: VEGF165-R988 scFv antibody (scFv)
scFv: ELDLTQTPSPVSAAVGGTVTINCQSSQTIYANRRLAWYQQKPGQPPKLLIYGASTLASGVPSRFKGSGSGTQFTLTISGVQCDDAATYYCAGYKSYDGDDVGFGGGTEVVVKSSGGGGSGGGGGGSSRSSQSVEESGGRLVTPGTPLTLTCTVSGIDLSSYAISWVRQAPGKGLEYIGYIWNAGNTYYASWAKGRFTISKTSTTVDLKITSPTTEDTATYFCARGTLGDYNGMDPWGPGTLVTVSS
- binding [1]: binds

B2: VEGF165 rabbit antibody VEGF-R988 (antibody, rabbit IgG1, V domains shown)
VH: QSVEESGGRLVTPGTPLTLTCTVSGIDLSSYAISWVRQAPGKGLEYIGYIWNAGNTYYASWAKGRFTISKTSTTVDLKITSPTTEDTATYFCARGTLGDYNGMDPWGPGTLVTVSS
VL: ELDLTQTPSPVSAAVGGTVTINCQSSQTIYANRRLAWYQQKPGQPPKLLIYGASTLASGVPSRFKGSGSGTQFTLTISGVQCDDAATYYCAGYKSYDGDDVGFGGGTEVVVK
- binding [2]: binds

B3: humanized antibody VEGF-H988 Fab fragment (Fab, V domains shown)
VH: QSVQESGPGLVKPSETLSLTCTVSGIDLSSYAISWVRQPPGKGLEYIGYIWNDLFTYYASWAKGRVTISVDTSKNQVDLKLSSVTAADTAVYFCARGTLGDYGGMDPWGQGTLVTVSS
VL: ELQLTQSPSSLSASVGDRVTITCQSSKFLWQGRRLAWYQQKPGKVPKLLIYGASTLASGVPSRFKGSGSGTDFTLTISSLQPEDVATYYCAGYKSYDGDVVGFGGGTKVEIKR
- binding [3]: binds
- binding [4]: binds
